Measurements as given in PubChem BioAssay AID1259415 (National Center for Advancing Translational Sciences (NCATS), 2018).
“And” between values parts separate entries of the source, which are not always exact repeats. Equal entries are not always repeated. The whole screen tested about 410,000 compounds, of which about 18,000 (4.4%) were called active. Inconclusive results, whose numbers are uncertain, are shown with a selection of clear calls. No stated cut-off is given here; in the data, active means activity change below about -60%; inconclusive means no clear call, values can overlap the other calls; inactive means above about -39%.
On the % scale 0 is the no-effect control and ±100 the full control effect.

Assay: qHTS Assay for inhibitors of the human cytomegalovirus (HCMV)
Details: HFF cells, HCMV-luciferase reporter, 72 h; at 57.5 µM; active compounds read low
Procedure, shortened: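 Compounds were evaluated in HFFs infected with an HCMV luciferase reporter virus (MOI 1 PFU/cell). Luciferase in lysates collected 72 h post infection served as the replication measure.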
With `COc1ccccc1Cc1c(-c2ccc(OC)c(OC)c2)nc2c3ccccc3ccn12` the activity change, negative = inhibition was inconclusive: -45.6%.
With `CC(=O)c1c(C(C)=O)c(C)n(-c2nc(-c3ccc(C)c(C)c3)c(C)s2)c1C` the activity change, negative = inhibition was inconclusive: -52.5%.
In the case of `COc1cc2ccccc2cc1C(=O)Nc1ccc2oc(-c3ccc(F)cc3)nc2c1`, the activity change, negative = inhibition was inactive: 32.7%.
In the case of `O=C(Nc1nnc(-c2ccc(F)cc2)o1)c1cc(Cl)sc1Cl`, the activity change, negative = inhibition was inconclusive: -40.5%.
For `COC(=O)c1sc(NC(=O)c2ccc(C)o2)nc1C`, the activity change, negative = inhibition was inactive: 14.8%.
In the case of `COc1ccc(-c2csc(N(CCCN(C)C)C(=O)c3ccc(Br)cc3)n2)cc1`, the activity change, negative = inhibition was active: -62.1%.
In the case of `Cc1nn(C(C)C(=O)NC2CCC(C)CC2)c(=O)c2nn(-c3ccccc3)c(C)c12` (configuration not stated), the activity change, negative = inhibition was inactive: -30.5%.
With `Cc1c(Cl)cccc1-c1ccc(CNc2ccc3[nH]c(=O)[nH]c3c2)o1` the activity change, negative = inhibition was inactive: -23.4%.
In the case of `CN(C)c1ccc(C(C(=O)NC2CCCCC2)N(Cc2ccco2)C(=O)c2snc(C(N)=O)c2N)cc1` (configuration not stated), the activity change, negative = inhibition was active: -74.5%.
For `FC(F)Oc1cccc(NC(=S)N2CCN(c3ccccn3)CC2)c1`, the activity change, negative = inhibition was inconclusive: -53.5%.
In the case of `COc1ccc(C2=NNC(c3ccco3)=Nc3ccc(F)cc32)cc1`, the activity change, negative = inhibition was inconclusive: -53.1%.
With `Clc1ccc2nc(CSc3ccccc3)cn2c1` the activity change, negative = inhibition was inconclusive: -51.6%.
In the case of `O=S(=O)(c1ccc2ccccc2c1)N(CC(O)COCc1ccco1)c1ccccc1` (configuration not stated), the activity change, negative = inhibition was inactive: -17.8%.
For `Cc1c(Cl)ccc2sc(NC(=O)c3ccc(S(=O)(=O)N4CCCc5ccccc54)cc3)nc12`, the activity change, negative = inhibition was inactive: 17.5%.
In the case of `COc1ccc(-n2c(C)c(C(C)=O)c3cc(OC(C)=O)ccc32)cc1`, the activity change, negative = inhibition was active: -79.5%.
For `S=C(NCCc1ccccc1)NN=C1CCCCCC1`, the activity change, negative = inhibition was active: -92.4%.
In the case of `Cc1cc(-c2n[nH]c(=S)n2/N=C/C(Br)=C/c2ccccc2)n[nH]1`, the activity change, negative = inhibition was active: -95%.
In the case of `Cc1c(N=N/C(C(=O)Nc2ccccc2)=C(/O)c2ccccc2)c(=O)n(-c2ccccc2)n1C`, the activity change, negative = inhibition was inconclusive: -59.8%.
For `Cc1cc(O)c2c(c1)OC(C)(C)C1=C2CC(C)CC1` (configuration not stated), the activity change, negative = inhibition was inconclusive: -40.9%.
In the case of `CCc1ccc2[nH]c(=O)c(CN(Cc3ccc4c(c3)OCO4)C(=O)c3ccco3)cc2c1`, the activity change, negative = inhibition was inconclusive: -48.6%.
For `CCOC(=O)c1[nH]cnc1C(=O)Nc1ccc([N+](=O)[O-])cc1`, the activity change, negative = inhibition was inconclusive: -41.6%.
With `COc1cccc(CNC(=O)CCC2CCCN(c3cc(C)nc(N)n3)C2)c1` (configuration not stated) the activity change, negative = inhibition was inconclusive: -44%.
For `Cc1cccc(C)c1NC(=O)NC1CCc2ccccc21` (configuration not stated), the activity change, negative = inhibition was inconclusive: -40.2%.
For `COc1ccc(CN2CCN(C(C)C(=O)NC(C)c3ccc(F)cc3)CC2)cc1F` (configuration not stated), the activity change, negative = inhibition was inconclusive: -42.9%.
With `O=C(Nc1ccc(Cl)cc1)c1cccc(N2C(=O)C3C4CCC(C4)C3C2=O)c1` (configuration not stated) the activity change, negative = inhibition was inconclusive: -54.1%.
With `Cc1cc2c3c(c1)C(C)CC(C)(C)N3C(=O)C2=O` (configuration not stated) the activity change, negative = inhibition was inactive: 57.6%.
For `CC(CN1CCCCC1)OC(=O)c1ccc2c(c1)OCCO2` (configuration not stated), the activity change, negative = inhibition was inconclusive: -41.4%.
In the case of `N#C/C(=C\c1c(Oc2ccc(Cl)cc2)nc2ccccn2c1=O)C(=O)NC1CCS(=O)(=O)C1` (configuration not stated), the activity change, negative = inhibition was inactive: 23%.
In the case of `COc1cc2c3c(c1)C1(C(=O)N3C(C)(C)C=C2C)C(C#N)=C(N)Oc2cc(C)oc(=O)c21` (configuration not stated), the activity change, negative = inhibition was inactive: 17.2%.
In the case of `O=C(NCc1nnnn1-c1ccc(F)cc1)C(=O)c1c[nH]c2ccccc12`, the activity change, negative = inhibition was inconclusive: -55.2%.
For `CC(C)C(NC(=O)c1ccccc1F)C(=O)NCc1ccc(S(=O)(=O)N2CCOCC2)cc1` (configuration not stated), the activity change, negative = inhibition was inactive: -6.99%.
In the case of `COc1ccc(C(O)(CCC(C)C)C(CN2CCOCC2)c2ccc(Cl)cc2)cc1` (configuration not stated), the activity change, negative = inhibition was inconclusive: -54.1%.
For `Cc1cc(C(=O)CSc2nc(N)cc(N)n2)c(C)n1CCc1ccc(F)cc1`, the activity change, negative = inhibition was inconclusive: -57.6%.
For `Cc1cccc(CC2S/C(=N/N=C/c3ccco3)NC2=O)c1` (configuration not stated), the activity change, negative = inhibition was inconclusive: -49.5%.
In the case of `CCCN(C(=O)CCl)C1=CCCCC1`, the activity change, negative = inhibition was active: -100%.
With `COc1ccc2[nH]c(=O)c(CN(C(=O)c3cccnc3)c3ccc(C)cc3)cc2c1` the activity change, negative = inhibition was inconclusive: -51.9%.
In the case of `O=C(NNC(=S)NC(=O)c1cn(-c2ccccc2)nc1-c1ccccc1)c1ccncc1`, the activity change, negative = inhibition was inactive: 21.1%.
For `Cc1nccn1Cc1cccc2ccccc12`, the activity change, negative = inhibition was inconclusive: -47.1%.
In the case of `COc1ccc(CCNC(=O)CCn2c(=O)c3cccn3c3ccc(F)cc32)c(OC)c1OC`, the activity change, negative = inhibition was inactive: -6.85% and inactive: -13.6%.
With `O=C(Nc1ccc(Br)cn1)c1cccc(S(=O)(=O)N2CCCC2)c1` the activity change, negative = inhibition was inactive: -3.16%.
In the case of `Cc1ccc(-c2nc(CSCC(=O)N3CCCC3)c(C)o2)cc1`, the activity change, negative = inhibition was inconclusive: -59.6%.
In the case of `COc1ccc(-n2ncc(C(=O)NCc3ccccc3)c2C2CCN(C(=O)OC(C)(C)C)CC2)cc1`, the activity change, negative = inhibition was inconclusive: 0%.
With `COc1ccccc1NC(=O)Nc1ccc(N2CCOCC2)cc1` the activity change, negative = inhibition was inactive: -3.2%.
For `O=C(COc1ncnc2ccccc12)c1ccc(Cl)cc1`, the activity change, negative = inhibition was inactive: -15.1%.
In the case of `CC(C)CN(CC(C)C)S(=O)(=O)N1CCC(C(=O)NCc2cccnc2)CC1`, the activity change, negative = inhibition was inconclusive: -54.2%.
For `Cc1nn(-c2ccccc2)c(Cl)c1C(=O)Nc1nnc(C2CCCCC2)s1`, the activity change, negative = inhibition was inactive: -2.1%.
In the case of `C=CCN1CCN(C(=O)c2cc3c(s2)CCCC3)CC1`, the activity change, negative = inhibition was inactive: 20%.
For `COc1ccccc1C1c2ccc3ccccc3c2Oc2ncn(CCN(C)C)c(=N)c21` (configuration not stated), the activity change, negative = inhibition was active: -101%.
With `CC(=O)N1CC(C)Sc2ccc(S(=O)(=O)NC3CCCCC3)cc21` (configuration not stated) the activity change, negative = inhibition was inconclusive: -43.2%.
For `COc1ccc(-n2c(O)c(C=NCc3ccc4c(c3)OCO4)c(=O)[nH]c2=O)cc1`, the activity change, negative = inhibition was inactive: 12.5%.
In the case of `CCc1ccccc1N(CC(=O)NC(C)(C)CC)C(=O)CCC(=O)Nc1nccs1`, the activity change, negative = inhibition was inconclusive: -54.7%.
With `CCCC[C@H]1COCCS(=O)(=O)N1Cc1cccc([N+](=O)[O-])c1` the activity change, negative = inhibition was active: -100%.
With `CC(C)c1ccc(/C=N/NC(=O)c2cccc(S(=O)(=O)N3CCOCC3)c2)cc1` the activity change, negative = inhibition was inactive: -20.2%.
With `COC(=O)c1[nH]c2ccccc2c1Sc1ccccc1` the activity change, negative = inhibition was inconclusive: -59.8%.
With `CCc1nc2ccccc2c(C(=O)OC2CCCCC2=O)c1C` (configuration not stated) the activity change, negative = inhibition was inconclusive: -47.7%.
With `COc1ccc(CNC(=O)CCNC(=O)N2CCn3c2nc2ccccc23)cc1` the activity change, negative = inhibition was inconclusive: -45.2%.
In the case of `CCCCCCCCN1C(=O)[C@H](CC(=O)NCc2cccc3ccccc23)C[C@@]2(C(=O)OC)CCCCC=C12`, the activity change, negative = inhibition was inactive: 11.4%.
In the case of `CN(C)S(=O)(=O)c1cccc(C(=O)OCC(=O)N2CCCC2=O)c1`, the activity change, negative = inhibition was inconclusive: -42.3%.
With `Cc1cc(SCC(=O)N/N=C/c2ccco2)nc2ccccc12` the activity change, negative = inhibition was inconclusive: -42%.
In the case of `CCc1cc(C(=O)Nc2c(C)nn(Cc3ccc(C)cc3)c2C)no1`, the activity change, negative = inhibition was inactive: -14%.
In the case of `Fc1cccc(-n2ncc(-c3nnnn3-c3ccccc3)c2C(F)(F)F)c1`, the activity change, negative = inhibition was inactive: -24.2%.
For `Cc1ccc(-n2c(O)c(/C=N/n3cnnc3)c3ccccc3c2=O)cc1`, the activity change, negative = inhibition was inconclusive: -40.2%.
In the case of `CCCn1c(SCC(=O)NC2CCCCC2)nnc1-c1ccccn1`, the activity change, negative = inhibition was inconclusive: -40.2%.
In the case of `CN(C)c1ccc(/C=C/c2ccc3c4ccccc4ccc3[n+]2-c2ccccc2)cc1`, the activity change, negative = inhibition was active: -99%.
In the case of `Cc1ccc2c(COC(=O)c3c(C)noc3C)cc(=O)oc2c1`, the activity change, negative = inhibition was inactive: 117%.
For `c1coc(CNc2nc(N3CCCCC3)nc3ccccc23)c1`, the activity change, negative = inhibition was inconclusive: -41.8%.
With `COCCN(C(=O)Cc1cccs1)C(C(=O)NCc1ccc(OC)cc1)c1ccccc1` (configuration not stated) the activity change, negative = inhibition was inactive: -31.1%.
With `O=C(Cc1c(F)c(F)c(F)c(F)c1F)Nc1nc(-c2ccccc2)cs1` the activity change, negative = inhibition was inconclusive: -41.5%.
With `CC(C)c1nc(SCC(=O)N2CCCCCC2)c2c(=O)n(C)c(=O)n(C)c2n1` the activity change, negative = inhibition was inconclusive: -55.2%.
With `C/C(=N\N=C\c1ccc(N(C)C)cc1)c1cccc([N+](=O)[O-])c1` the activity change, negative = inhibition was inactive: 169%.
For `CC(C)Oc1ccc(OCCn2c(=S)[nH]c3c(N)ncnc32)cc1`, the activity change, negative = inhibition was inconclusive: -40.6%.
For `CCCC(=O)NC(Oc1ccc(OC)cc1)C(Cl)(Cl)Cl` (configuration not stated), the activity change, negative = inhibition was inconclusive: -51.5%.
With `NNC(=O)CNC(c1ccccc1)c1cc(Br)ccc1NC(=O)c1cccc(Cl)c1` (configuration not stated) the activity change, negative = inhibition was inactive: -20.6%.
In the case of `O=C(CCl)N1CCN(S(=O)(=O)c2ccc3ccccc3c2)CC1`, the activity change, negative = inhibition was active: -97.9%.
With `CC(=O)c1cc(C(=O)Nc2cccc(C)c2)c2ccccn12` the activity change, negative = inhibition was inactive: 8.66%.
For `Cc1cc(C(=O)Nc2ccccc2Cl)n(-c2ccccc2)n1`, the activity change, negative = inhibition was inactive: -26.5%.
With `O=C1Cc2ccccc2C(=O)N1c1ccccc1` the activity change, negative = inhibition was inactive: 33.1%.
In the case of `COc1ccccc1CCCNC(=O)C1CCC(=O)N(CCCN2CCCC2=O)C1` (configuration not stated), the activity change, negative = inhibition was inconclusive: -44%.
For `COc1ccc(-c2nc(NC(=O)c3ccc(OCC(=O)N4CCOCC4)c(OC)c3)sc2C)cc1`, the activity change, negative = inhibition was inconclusive: -54.1%.
For `C=CCn1c(-c2cc(OC)c(OC)c(OC)c2)n[nH]c1=S`, the activity change, negative = inhibition was inactive: 17.9%.
With `Cc1ccc2cc(CN(CC3CCCO3)C(=S)NCc3ccco3)c(=O)[nH]c2c1C` (configuration not stated) the activity change, negative = inhibition was active: -63.3%.
With `CC(C)c1nnc(NC(=O)C2CCN(c3cnccn3)CC2)s1` the activity change, negative = inhibition was inactive: -6.45%.
For `Cc1ccc(-n2c([S-])c(C(=O)NC(C)c3ccccc3)[n+]3ccccc23)cc1` (configuration not stated), the activity change, negative = inhibition was inconclusive: -48.9%.
In the case of `COc1ccc(OCC(=O)NCc2nc(-c3ccccc3)no2)cc1`, the activity change, negative = inhibition was inactive: -17.9%.
In the case of `CCSc1ccccc1C(=O)N1CCN(c2ccccc2F)CC1`, the activity change, negative = inhibition was active: -103%.
With `Nn1cnc2scc(-c3ccc(Cl)cc3)c2c1=O` the activity change, negative = inhibition was inactive: -30.7%.
In the case of `Cc1ccccc1N1CCN(C(=O)c2ccccc2NC(=O)/C=C\C(=O)O)CC1`, the activity change, negative = inhibition was inactive: 4.35%.
